Data reported in paper PMC3517461.
These are yes or no findings as the source states them, for the method shown. In cells and extracts the contact can be indirect. Binding calls can cover weak binding; strength is not graded here. Sequences can lack the tags named with a protein.

Target: human IRE1β K547A, 3x HA-tagged (pCAG-hIRE1β-HA K547A) (human)
Assay: co-IP; HEK293T cells co-transfected with Flag-tagged model protein and HA-tagged IRE1; lysis in TNE buffer (10 mM Tris-HCl pH 7.5, 1% NP-40, 150 mM NaCl, 1 mM EDTA); anti-HA (12CA5) immunoprecipitation on protein G Sepharose; anti-Flag Western blot

binding: binds
B1: mouse Amy1, 3x Flag-tagged (pCAX-mAmy1-Flag) (protein, UniProt P00687 16-511)
chain: QYDPHTQYGRTAIVHLFEWRWVDIAKECERYLAPNGFAGVQVSPPNENIVVHSPSRPWWERYQPISYKICSRSGNEDEFRDMVNRCNNVGVRIYVDAVINHMCGVGAQAGQSSTCGSYFNPNNRDFPGVPYSGFDFNDGKCRTASGGIENYQDAAQVRDCRLSGLLDLALEKDYVRTKVADYMNHLIDIGVAGFRLDASKHMWPGDIKAILDKLHNLNTKWFSQGSRPFIFQEVIDLGGEAVSSNEYFGNGRVTEFKYGAKLGKVMRKWDGEKMSYLKNWGEGWGLMPSDRALVFVDNHDNQRGHGAGGASILTFWDARLYKMAVGFMLAHPYGFTRVMSSYYWPRNFQNGKDVNDWVGPPNNNGKTKEVSINPDSTCGNDWICEHRWRQIRNMVAFRNVVNGQPFANWWDNDSNQVAFGRGNKGFIVFNNDDWALSETLQTGLPAGTYCDVISGDKVDGNCTGIKVYVGNDGKAHFSISNSAEDPFIAIHAESKI
